“Also recorded” adds a separate entry of the source. Part of at least one peptide drawing is inferred or uncertain, most often the ends. Where no end group is shown, it is not given here.
Tested on: human neutrophils
Assay: Chemiluminescence assay: priming of neutrophils for F-met-leu-phe response (respiratory burst)
Type: cell-based
Experimental: Purified human neutrophils were pretreated with peptide for 20 minutes before the addition of f-met-leu-phe. The lucigenin dependent chemiluminescence response, which reflects superoxide production, was then measured. The results obtained are set out in Table 2 and are expressed as mV of lucigenin dependent chemiluminescence and represent the maximal cell activity attained.
Results are expressed as mV of lucigenin dependent chemiluminescence and represent peak of response i.e. the maximal cell activity attained.

PSTHVLLTHTI [Peptide 395, P S T H V L L T H T I]
neutrophil stimulating activity / stimulation of neutrophil respiratory burst (in words): able to stimulate the neutrophil respiratory burst; also recorded: dose dependent; also recorded: neutrophil stimulating activity | Chemiluminescence, neutrophil respiratory burst (100 ug peptide, second, Table 4): 5.32 mV

— US6375928B1, “Neutrophil stimulating peptides” (Peptech Limited, priority 1990, dated 2002)
